Source: patent publication US6627399B1, “RNA polymerase transcription promoters and nucleic acid sequencing method” (Riken, priority 1998, dated 2003)
For at least one compound, name, drawing or mass did not settle the structure.

Chains of the proteins cited; added tags and fusions are not shown. Lines headed by an entry give the natural chain unless they say otherwise; changes in a name come on top.
UniProt P00573: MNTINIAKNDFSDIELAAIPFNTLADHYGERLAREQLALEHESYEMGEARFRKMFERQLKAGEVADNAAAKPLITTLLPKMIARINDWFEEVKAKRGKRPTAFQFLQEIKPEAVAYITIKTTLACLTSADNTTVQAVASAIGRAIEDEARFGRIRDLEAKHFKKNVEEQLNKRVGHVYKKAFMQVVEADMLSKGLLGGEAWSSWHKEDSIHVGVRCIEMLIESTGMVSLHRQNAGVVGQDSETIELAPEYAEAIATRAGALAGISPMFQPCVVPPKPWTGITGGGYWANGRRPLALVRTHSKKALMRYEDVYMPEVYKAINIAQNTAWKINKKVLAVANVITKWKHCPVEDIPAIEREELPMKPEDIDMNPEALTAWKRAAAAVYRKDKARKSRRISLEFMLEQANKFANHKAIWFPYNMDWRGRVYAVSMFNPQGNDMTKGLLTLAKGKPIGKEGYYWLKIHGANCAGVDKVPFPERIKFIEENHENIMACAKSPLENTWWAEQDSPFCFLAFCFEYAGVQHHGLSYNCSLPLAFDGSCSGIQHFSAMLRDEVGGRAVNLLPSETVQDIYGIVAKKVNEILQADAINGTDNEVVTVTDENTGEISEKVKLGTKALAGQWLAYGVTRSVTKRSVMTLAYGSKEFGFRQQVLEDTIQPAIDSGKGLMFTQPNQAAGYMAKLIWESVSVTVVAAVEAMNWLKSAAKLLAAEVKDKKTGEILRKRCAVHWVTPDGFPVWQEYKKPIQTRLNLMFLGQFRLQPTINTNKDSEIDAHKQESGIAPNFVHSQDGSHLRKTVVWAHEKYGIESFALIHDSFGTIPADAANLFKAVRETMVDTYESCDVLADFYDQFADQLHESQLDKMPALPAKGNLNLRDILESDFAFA

Target: wild-type T7 RNA polymerase (Escherichia phage T7, UniProt P00573)
Experiment: Accelerating effect of polyamines on in vitro transcription activity of T7 RNA polymerase ([α32P]UTP incorporation, gel electrophoresis)
Type: biochemical, bacteriophage T7
Design: key: fold radioactivity relative to blank without polyamine
Conditions: polyamine final concentration 2 mM, 37° C. for one hour; amplification of radioactivity of transcription products compared to a blank without polyamine
Procedure: An activation level was evaluated by observing an effect of a polyamine on in vitro transcription activation using bacteriophage T7 RNA polymerase in the reaction system below.
Each polyamine was added to 10 μl of reaction solution (40 mM Tris-Cl, pH 8.0, 8 mM MgCl2, 5 mM DTT, 200 µM GMP, wild-type T7 RNA polymerase 5U, 0.2 μCi [α32P]UTP, dsDNA produced by cleavage of pBluescript [Stratagene] by a restriction enzyme Pvull 500 μM as rNTP template DNA) to yield a final concentration of 2 mM, then reacted at 37° C. for one hour. After the reaction, 10 μl of formamide loading dye (98% formamide, 10 mM EDTA) was added to the products, heated at 90° C. for modification, subsequently analyzed by electrophoresis on 4% acrylamide gel. The gel was dried after the electrophoresis, observed for radioactivity contained in the transcription products using the BAS2000 image analysis system (Fujiphotofilm Inc.), and evaluated for activation level of each polyamine.
Data is given in amplification of radioactivity compared to a blank in which a reaction is carried out in parallel in the same condition excepting no polyamine was added.

Structure (SMILES)	Activity Level
CCNCCCNCCCCNCCCNCC [Compound 5, 1,12-di(ethylamino) 4,9-diazadodecane]	1.01
CCNCCCCNCCCNCC [Compound 10, 1,8-di(ethylamino)-4-azaoctane]	3.05
